These are yes or no findings as the source states them, for the method shown. Some results given as binding are weak or reduced against the parent protein; the word gives no strength.
Legend:
[1] = biological target: CCAAT/enhancer binding protein γ (C/EBPγ), endogenous in MLE12 cells (mouse (endogenous in MLE12)) (UniProt P53568); assay: native gel or EMSA; nuclear extracts of MLE12 cells (untreated or 20 ng/ml IL-1β for 3 h; or infected with Adeno-GFP or Adeno-C/EBPγ at 20 MOI) with 32P-labelled murine IL-6 C/EBP binding site probe, room temperature; supershift with antibodies to C/EBP family members; dimers seen as DNA-bound species
[2] = biological target: mouse C/EBPγ expressed from recombinant adenovirus (Adeno-C/EBPγ) in MLE12 cells (mouse) (UniProt P53568); assay: as above

B1: CCAAT/enhancer binding protein γ (C/EBPγ), endogenous in MLE12 cells (protein, UniProt P53568 1-150)
chain: MSKLSQPATTPGVNGISVIHTQAHASGLQQVPQLVPAGPGGGGKAVPPSKQSKKSSPMDRNSDEYRQRRERNNMAVKKSRLKSKQKAQDTLQRVNQLKEENERLEAKIKLLTKELSVLKDLFLEHAHSLADNVQPISTETTATNSDNPGQ
[1]
  binding: binds

B2: mouse C/EBPγ expressed from recombinant adenovirus (Adeno-C/EBPγ) in MLE12 cells (protein, UniProt P53568 1-150)
chain: B1 chain
[2]
  binding: binds
